Hit rate of the full screen: of about 320,000 compounds, about 2,100 (0.66%) were called active. Inconclusive results, whose numbers are uncertain, are shown with a selection of clear calls. Calls follow the shape of the dose curve; as a rule, active = well fitted inhibition curve with a large enough effect in the signal ratio, with a control signal flat (not every such curve was filed as active); inconclusive = small, poorly fitted or top-dose-only effect, or effect the other way, or a change in a side signal; inactive = flat fitted curve, though single readings scatter; the % refers to the signal ratio. Potencies of inconclusive entries are doubtful fits and often do not repeat.
Assay: qHTS Assay for Lipid Storage Modulators in Drosophila S3 Cells
Conditions: BODIPY lipid droplet fluorescence, 18-24 h, cells fed with added oleic acid; lipid storage change, negative = inhibition: at 46.1 µM (top of the series) unless noted
Outline: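 Drosophila S3 cells got compounds at several concentrations plus oleic acid (400 uM solution). Laser-scanning cytometry with 488 nm excitation read lipid droplets at 500-530 nm and cells at 575-640 nm. Percent activity was relative to 20 uM Triacsin C.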
% is scaled to controls: 0 for no effect and ±100 for the full control effect; potency is read from the fitted curve at half-maximal effect.

Row | Compound | Potency | lipid storage change, negative = inhibition
1 | CCn1c(=O)n(CC)c2cc(NC(=O)CSc3ccc([N+](=O)[O-])cn3)ccc21 | inconclusive: 8.2 µM [activator, partial curve] | 
2 | Cc1ccn2c(c1)nc(=O)c1cc(S(=O)(=O)N3CCC(C)CC3)ccc12 |  | inconclusive: 31.1%
3 | Cc1ccc(C)n1-c1ccc(C(=O)N/N=C/c2ccncc2)cc1 |  | inconclusive: 22.3%
4 | Cc1cc(C)c(NC(=O)/C=C\C(=O)O)c([N+](=O)[O-])c1 |  | inconclusive: -13.9%
5 | CCOC(=O)NC(NC(=S)Nc1ccccc1[N+](=O)[O-])C(Cl)(Cl)Cl (configuration not stated) | inconclusive: 0.517 µM [falling, full curve] | 
6 | COc1ccc(OC)c(-n2nnnc2SCC(=O)Nc2ccc3c(c2)OCCO3)c1 |  | inconclusive: 65.9%
7 | COc1ccc(N(C)S(=O)(=O)c2cccc(C(=O)NC3CCC(C)CC3)c2)cc1 (configuration not stated) |  | inconclusive: -0.867%
8 | Cc1ccc(Sc2ccc(C(=O)NC(C)C)cc2[N+](=O)[O-])cc1 |  | inconclusive: 22.8%
9 | Cc1cc(NC(=O)C(C)Oc2ccc(C(C)(C)C)cc2)no1 (configuration not stated) | inconclusive: 14.6 µM [activator, partial curve] | 
10 | Cc1ccc(C(=O)N/C(=C\C=C\c2ccccc2)C(=O)NCc2ccco2)cc1 |  | inconclusive: 97.7%
11 | CSc1ncc(S(=O)(=O)c2ccccc2)c(=O)[nH]1 | inconclusive: 18.4 µM [cytotoxic, single point] | 
12 | COc1ccc(-c2nc(-c3ccccc3)no2)c(OC)c1 | inconclusive: 1.3 µM [activator, partial curve] | 
13 | CC(=O)c1sc2nc(SCC(=O)NCCc3ccccc3)[nH]c(=O)c2c1C | inconclusive: 0.731 µM [falling, full curve] | 
14 | Cc1ccc(S(=O)(=O)NNC(=O)Nc2ccc(C)c(C)c2)c(C)c1 | inconclusive: 5.8 µM [activator, partial curve] | 
15 | NNc1ncnc2sc3c(c12)CCC3 |  | inconclusive: 34.2%
16 | CCc1cc(=O)oc2cc(C)cc(OCC(=O)C(C)(C)C)c12 |  | inconclusive: -1.13%
17 | CSc1ccccc1NC(=O)c1ccc([N+](=O)[O-])cc1 | inconclusive: 6.51 µM [activator, single point] | 
18 | Cc1ccc(C(=O)CCC(=O)NC2=NCCS2)cc1 | inconclusive: 0.146 µM [rising, full curve, poor fit] | 
19 | Cc1cc(C)c(S(=O)(=O)Nc2ccccc2C(=O)N2CCOCC2)c(C)c1 | active: 25.9 µM | 

Row | Compound | Potency | lipid storage change, negative = inhibition
20 | COC(=O)c1c(C)oc(C)c1S(=O)(=O)NC(c1ccccc1)c1ccccc1 |  | inconclusive: 20%
21 | Cc1ccc(C(=O)COC(=O)c2ccc3c(c2)C(=O)N(c2cccc4ncccc24)C3=O)cc1 | inconclusive: 29.1 µM [falling, single point] | 
22 | COc1cccc(CNS(=O)(=O)c2c(C(=O)N3CCCC3)c(C)n(C)c2C)c1 |  | inconclusive: 9.26%
23 | COc1ccc(C(=O)OCc2cc(C)ccc2C)cc1S(=O)(=O)N1CCCC1 | active: 0.082 µM | 
24 | COC(=O)Cn1c(=O)c(C)nc2ccccc21 |  | inconclusive: 6.04%
25 | CCOC(=O)C1CCN(c2nc3ccccc3nc2C(C#N)C(=O)OC(C)C)CC1 (configuration not stated) | inconclusive: 25.9 µM [activator, single point] | 
26 | COc1ccc(Cl)cc1C(=O)NNC1CC(=O)N(Cc2ccc(Cl)cc2)C1=O (configuration not stated) |  | inconclusive: 224%
27 | N#Cc1c(Nc2cccc(F)c2)sc2c(O)cc(=O)[nH]c12 |  | inconclusive: -15.9%
28 | COc1ccc(NS(=O)(=O)c2cccc(C(=O)NCC3(N4CCOCC4)CCCCC3)c2)cc1 |  | inactive: -19.7%
29 | C/C=C/C(=O)OCc1csc(CC(=O)Nc2ccccc2C)n1 |  | inconclusive: 164%
30 | Cc1nn(Cc2ccccc2)c(C)c1/C=N/NC(=O)c1ccccc1O |  | inconclusive: 19.2%
31 | CN(Cc1ccon1)C(=O)C1CCC(=O)N(Cc2ccc(Cl)cc2)C1 (configuration not stated) |  | inconclusive: 31%
32 | Cc1ccnn1CC(=O)N/N=C/c1ccc2c(c1)OCO2 | inconclusive: 0.0046 µM [activator, full curve, poor fit] | 
33 | CCn1c(C)nc2cc(C(=O)NNC(=O)CCC3CCCCC3)ccc21 |  | inconclusive: -7.23%
34 | Cc1ccc(NC(=S)NNC(=S)Nc2ccc(C)cc2C)cc1 |  | inconclusive: -16.6%
35 | CCOc1ccc(Cn2nnc(C(=O)NCCc3ccc(Cl)cc3)c2N)cc1 | active: 18.4 µM | 
36 | Cc1ccc(NC(=O)CCC(=O)NNC(=O)COc2ccc([N+](=O)[O-])cc2)cc1C |  | inconclusive: -3.53%
37 | CCC(CC)NC(=O)CO/N=C/c1ccccc1OC(F)F |  | inconclusive: 24.3%

A second format for 8 compounds above.
Row	Compound	Potency	lipid storage change, negative = inhibition
26	COc1ccc(Cl)cc1C(=O)NNC1CC(=O)N(Cc2ccc(Cl)cc2)C1=O (configuration not stated)		inconclusive: 224%
27	N#Cc1c(Nc2cccc(F)c2)sc2c(O)cc(=O)[nH]c12		inconclusive: -15.9%
28	COc1ccc(NS(=O)(=O)c2cccc(C(=O)NCC3(N4CCOCC4)CCCCC3)c2)cc1		inactive: -19.7%
29	C/C=C/C(=O)OCc1csc(CC(=O)Nc2ccccc2C)n1		inconclusive: 164%
30	Cc1nn(Cc2ccccc2)c(C)c1/C=N/NC(=O)c1ccccc1O		inconclusive: 19.2%
31	CN(Cc1ccon1)C(=O)C1CCC(=O)N(Cc2ccc(Cl)cc2)C1 (configuration not stated)		inconclusive: 31%
32	Cc1ccnn1CC(=O)N/N=C/c1ccc2c(c1)OCO2	inconclusive: 0.0046 µM [activator, full curve, poor fit]	
33	CCn1c(C)nc2cc(C(=O)NNC(=O)CCC3CCCCC3)ccc21		inconclusive: -7.23%

From PubChem BioAssay AID2685 (National Center for Advancing Translational Sciences (NCATS), 2010)
